Laboratory results reported in the supplement of paper PMC10849652.
This is one part of the list.

Amino acid sequences for entries named in this document (tags omitted). A change or cut given only in a name is not applied to a line headed by its entry.
UniProt Q5T6C5: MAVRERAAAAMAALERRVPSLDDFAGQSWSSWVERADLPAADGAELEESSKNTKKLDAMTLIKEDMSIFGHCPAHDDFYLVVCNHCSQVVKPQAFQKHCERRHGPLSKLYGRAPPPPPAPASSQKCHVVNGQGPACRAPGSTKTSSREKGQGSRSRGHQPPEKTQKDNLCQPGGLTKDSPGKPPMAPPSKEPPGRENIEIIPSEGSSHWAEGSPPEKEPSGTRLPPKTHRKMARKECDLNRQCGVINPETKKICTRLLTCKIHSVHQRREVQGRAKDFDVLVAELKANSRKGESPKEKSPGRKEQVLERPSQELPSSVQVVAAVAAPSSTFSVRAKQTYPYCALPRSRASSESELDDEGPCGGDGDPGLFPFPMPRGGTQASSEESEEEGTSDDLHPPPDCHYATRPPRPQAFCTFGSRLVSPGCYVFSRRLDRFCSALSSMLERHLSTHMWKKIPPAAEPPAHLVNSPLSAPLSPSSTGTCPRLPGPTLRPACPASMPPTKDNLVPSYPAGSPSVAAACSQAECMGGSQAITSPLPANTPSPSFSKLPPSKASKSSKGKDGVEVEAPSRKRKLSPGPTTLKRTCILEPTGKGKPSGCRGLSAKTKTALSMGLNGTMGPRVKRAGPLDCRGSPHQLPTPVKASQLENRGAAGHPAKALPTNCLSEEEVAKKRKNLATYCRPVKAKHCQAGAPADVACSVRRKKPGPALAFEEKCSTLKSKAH
UniProt Q4VC05, whole entry, looked up: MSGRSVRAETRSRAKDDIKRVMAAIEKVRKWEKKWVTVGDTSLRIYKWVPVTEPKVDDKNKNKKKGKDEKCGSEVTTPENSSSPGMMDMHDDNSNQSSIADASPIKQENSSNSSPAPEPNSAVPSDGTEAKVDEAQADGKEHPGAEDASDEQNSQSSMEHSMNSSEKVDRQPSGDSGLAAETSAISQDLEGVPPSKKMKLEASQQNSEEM
UniProt P54252: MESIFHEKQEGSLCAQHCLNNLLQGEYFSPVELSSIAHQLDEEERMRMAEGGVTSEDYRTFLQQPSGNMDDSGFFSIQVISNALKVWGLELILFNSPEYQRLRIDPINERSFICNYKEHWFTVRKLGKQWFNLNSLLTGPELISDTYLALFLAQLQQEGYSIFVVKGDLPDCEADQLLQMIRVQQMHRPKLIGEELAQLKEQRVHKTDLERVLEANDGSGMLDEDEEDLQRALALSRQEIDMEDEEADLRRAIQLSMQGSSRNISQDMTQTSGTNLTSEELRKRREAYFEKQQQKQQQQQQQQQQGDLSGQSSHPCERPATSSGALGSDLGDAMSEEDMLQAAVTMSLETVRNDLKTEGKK
UniProt Q9HB09: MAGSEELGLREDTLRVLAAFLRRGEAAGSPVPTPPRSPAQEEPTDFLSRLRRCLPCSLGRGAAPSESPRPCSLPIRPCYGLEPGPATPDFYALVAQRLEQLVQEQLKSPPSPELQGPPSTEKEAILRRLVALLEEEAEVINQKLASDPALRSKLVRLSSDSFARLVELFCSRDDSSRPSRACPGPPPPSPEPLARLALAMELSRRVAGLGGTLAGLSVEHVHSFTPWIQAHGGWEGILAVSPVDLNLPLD
UniProt Q9H2G9: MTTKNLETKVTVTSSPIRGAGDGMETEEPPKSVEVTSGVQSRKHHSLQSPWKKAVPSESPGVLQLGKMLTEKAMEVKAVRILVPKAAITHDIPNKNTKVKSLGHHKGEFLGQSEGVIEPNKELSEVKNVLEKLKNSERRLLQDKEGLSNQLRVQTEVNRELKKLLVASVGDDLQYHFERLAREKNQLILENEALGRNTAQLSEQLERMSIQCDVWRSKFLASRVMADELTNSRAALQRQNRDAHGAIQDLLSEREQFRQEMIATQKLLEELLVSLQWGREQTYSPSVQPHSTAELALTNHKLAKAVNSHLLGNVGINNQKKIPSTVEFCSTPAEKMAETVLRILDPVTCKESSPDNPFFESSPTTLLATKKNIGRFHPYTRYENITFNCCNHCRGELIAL
UniProt O43505: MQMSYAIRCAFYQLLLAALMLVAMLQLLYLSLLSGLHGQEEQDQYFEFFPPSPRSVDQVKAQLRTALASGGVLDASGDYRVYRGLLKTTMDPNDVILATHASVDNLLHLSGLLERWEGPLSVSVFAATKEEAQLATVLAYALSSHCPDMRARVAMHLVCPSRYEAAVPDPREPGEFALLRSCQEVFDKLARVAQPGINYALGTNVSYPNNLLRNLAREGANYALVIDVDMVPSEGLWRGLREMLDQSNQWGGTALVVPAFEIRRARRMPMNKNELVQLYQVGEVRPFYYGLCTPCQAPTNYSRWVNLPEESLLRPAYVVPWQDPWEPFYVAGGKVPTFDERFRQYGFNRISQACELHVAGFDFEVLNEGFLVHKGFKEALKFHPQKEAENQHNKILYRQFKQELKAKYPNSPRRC
UniProt Q9H7T9: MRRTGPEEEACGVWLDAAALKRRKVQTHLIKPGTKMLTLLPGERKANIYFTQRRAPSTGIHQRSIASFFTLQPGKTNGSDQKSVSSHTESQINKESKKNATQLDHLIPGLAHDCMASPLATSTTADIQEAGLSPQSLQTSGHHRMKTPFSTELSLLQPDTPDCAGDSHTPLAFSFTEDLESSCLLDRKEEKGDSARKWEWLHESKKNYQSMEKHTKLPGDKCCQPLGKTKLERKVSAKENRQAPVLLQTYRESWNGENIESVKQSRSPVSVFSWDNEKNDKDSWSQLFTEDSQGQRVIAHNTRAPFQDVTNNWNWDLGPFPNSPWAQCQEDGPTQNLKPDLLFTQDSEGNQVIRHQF
UniProt Q13825: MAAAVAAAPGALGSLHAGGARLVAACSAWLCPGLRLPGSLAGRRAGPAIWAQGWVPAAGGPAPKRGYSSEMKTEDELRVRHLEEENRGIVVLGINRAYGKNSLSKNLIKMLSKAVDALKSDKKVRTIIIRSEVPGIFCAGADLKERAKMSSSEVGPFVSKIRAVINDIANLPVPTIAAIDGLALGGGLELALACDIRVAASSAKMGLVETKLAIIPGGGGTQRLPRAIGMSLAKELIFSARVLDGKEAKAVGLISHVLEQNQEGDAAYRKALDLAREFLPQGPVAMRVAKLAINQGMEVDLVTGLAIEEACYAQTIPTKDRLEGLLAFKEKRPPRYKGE
UniProt H3BUF6: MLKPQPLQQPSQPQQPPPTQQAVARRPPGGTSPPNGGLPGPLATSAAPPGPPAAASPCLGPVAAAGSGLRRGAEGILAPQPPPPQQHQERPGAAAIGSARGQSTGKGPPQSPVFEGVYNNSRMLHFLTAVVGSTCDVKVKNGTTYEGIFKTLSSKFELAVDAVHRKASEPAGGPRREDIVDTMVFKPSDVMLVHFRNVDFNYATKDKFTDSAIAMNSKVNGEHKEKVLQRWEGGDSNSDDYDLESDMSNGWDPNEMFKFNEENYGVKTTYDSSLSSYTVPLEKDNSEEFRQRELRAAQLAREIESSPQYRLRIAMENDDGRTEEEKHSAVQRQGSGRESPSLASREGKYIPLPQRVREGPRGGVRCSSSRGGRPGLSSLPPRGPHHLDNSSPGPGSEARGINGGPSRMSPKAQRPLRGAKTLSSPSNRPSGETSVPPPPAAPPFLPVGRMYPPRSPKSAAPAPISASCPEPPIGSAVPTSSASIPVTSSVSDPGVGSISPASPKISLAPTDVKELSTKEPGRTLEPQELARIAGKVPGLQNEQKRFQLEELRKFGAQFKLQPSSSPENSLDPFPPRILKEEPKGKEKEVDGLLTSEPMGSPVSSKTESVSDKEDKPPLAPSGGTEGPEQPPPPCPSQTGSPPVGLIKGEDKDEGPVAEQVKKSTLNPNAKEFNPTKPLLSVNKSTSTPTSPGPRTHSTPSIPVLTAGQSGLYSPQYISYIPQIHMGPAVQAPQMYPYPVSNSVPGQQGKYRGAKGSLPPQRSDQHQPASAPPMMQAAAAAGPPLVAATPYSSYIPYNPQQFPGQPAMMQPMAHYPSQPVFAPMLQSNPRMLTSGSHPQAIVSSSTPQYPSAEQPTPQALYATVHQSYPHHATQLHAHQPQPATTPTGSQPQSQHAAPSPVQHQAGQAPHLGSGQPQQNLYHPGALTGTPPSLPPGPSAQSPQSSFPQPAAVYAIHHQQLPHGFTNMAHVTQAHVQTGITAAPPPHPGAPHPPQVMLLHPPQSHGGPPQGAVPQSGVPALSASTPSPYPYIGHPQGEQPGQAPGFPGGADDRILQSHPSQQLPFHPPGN
UniProt Q12983, whole entry, looked up: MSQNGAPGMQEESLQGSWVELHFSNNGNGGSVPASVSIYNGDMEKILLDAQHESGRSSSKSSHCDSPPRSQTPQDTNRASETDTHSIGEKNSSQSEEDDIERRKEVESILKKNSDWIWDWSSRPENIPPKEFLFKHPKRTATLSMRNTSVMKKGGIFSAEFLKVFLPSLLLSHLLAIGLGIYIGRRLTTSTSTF
UniProt Q9BXH1: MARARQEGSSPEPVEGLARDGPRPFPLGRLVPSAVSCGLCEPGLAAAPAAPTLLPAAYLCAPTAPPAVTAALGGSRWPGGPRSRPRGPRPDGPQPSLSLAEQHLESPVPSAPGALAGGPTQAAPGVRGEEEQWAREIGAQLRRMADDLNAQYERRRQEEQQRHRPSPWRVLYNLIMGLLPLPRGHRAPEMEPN
UniProt Q7Z5W3: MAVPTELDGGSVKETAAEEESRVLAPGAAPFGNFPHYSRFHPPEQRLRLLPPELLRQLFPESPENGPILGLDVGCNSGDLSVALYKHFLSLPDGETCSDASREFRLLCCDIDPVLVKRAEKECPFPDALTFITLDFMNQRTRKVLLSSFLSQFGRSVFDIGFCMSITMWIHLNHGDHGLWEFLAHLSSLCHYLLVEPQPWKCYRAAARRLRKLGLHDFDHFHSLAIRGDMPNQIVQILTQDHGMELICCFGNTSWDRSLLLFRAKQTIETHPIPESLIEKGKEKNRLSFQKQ
UniProt Q8TBE0: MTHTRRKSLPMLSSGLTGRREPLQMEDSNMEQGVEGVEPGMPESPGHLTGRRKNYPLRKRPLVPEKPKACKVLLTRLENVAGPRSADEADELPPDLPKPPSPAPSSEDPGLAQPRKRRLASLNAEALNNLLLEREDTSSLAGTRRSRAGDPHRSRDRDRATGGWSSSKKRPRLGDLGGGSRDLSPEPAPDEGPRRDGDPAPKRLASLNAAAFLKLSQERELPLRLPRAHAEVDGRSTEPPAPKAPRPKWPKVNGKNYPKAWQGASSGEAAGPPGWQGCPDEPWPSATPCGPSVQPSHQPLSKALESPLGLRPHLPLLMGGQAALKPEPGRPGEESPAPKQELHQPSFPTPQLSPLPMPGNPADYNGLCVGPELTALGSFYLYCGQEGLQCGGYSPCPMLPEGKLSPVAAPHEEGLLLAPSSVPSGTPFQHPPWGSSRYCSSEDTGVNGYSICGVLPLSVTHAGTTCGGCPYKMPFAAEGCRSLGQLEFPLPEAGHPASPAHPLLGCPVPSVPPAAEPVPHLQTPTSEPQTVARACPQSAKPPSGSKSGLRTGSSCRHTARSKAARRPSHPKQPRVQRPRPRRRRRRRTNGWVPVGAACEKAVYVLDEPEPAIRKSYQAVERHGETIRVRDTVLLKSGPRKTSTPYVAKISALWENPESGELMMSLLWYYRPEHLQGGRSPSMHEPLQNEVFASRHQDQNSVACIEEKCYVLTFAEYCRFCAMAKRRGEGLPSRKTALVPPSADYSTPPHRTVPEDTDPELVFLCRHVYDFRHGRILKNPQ
UniProt Q9NZS9: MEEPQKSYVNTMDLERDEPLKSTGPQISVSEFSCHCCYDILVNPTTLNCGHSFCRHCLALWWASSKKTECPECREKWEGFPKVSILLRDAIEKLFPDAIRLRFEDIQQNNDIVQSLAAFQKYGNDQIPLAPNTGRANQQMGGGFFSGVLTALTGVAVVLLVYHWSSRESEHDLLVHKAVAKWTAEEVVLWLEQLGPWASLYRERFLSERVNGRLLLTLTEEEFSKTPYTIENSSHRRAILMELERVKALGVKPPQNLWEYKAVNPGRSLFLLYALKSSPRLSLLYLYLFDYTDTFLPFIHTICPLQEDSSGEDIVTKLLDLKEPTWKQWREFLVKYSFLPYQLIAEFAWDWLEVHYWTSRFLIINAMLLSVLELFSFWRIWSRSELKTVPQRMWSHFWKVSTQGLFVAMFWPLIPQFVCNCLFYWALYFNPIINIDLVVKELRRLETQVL
UniProt Q9UQB8: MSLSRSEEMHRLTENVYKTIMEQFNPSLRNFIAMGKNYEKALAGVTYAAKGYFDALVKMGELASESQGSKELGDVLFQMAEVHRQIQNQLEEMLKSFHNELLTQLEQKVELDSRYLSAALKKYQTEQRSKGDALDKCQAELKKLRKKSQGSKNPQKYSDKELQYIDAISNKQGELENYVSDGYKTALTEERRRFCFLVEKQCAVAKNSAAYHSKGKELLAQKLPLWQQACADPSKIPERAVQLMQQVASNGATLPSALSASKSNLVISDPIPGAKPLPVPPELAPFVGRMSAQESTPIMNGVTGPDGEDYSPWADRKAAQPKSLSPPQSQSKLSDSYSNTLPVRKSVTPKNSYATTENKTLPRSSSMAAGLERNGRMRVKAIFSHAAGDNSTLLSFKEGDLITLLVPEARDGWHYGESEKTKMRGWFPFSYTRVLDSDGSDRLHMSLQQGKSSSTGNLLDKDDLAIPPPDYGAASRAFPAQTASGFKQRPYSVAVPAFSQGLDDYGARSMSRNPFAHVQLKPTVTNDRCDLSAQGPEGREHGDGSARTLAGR

How the values were obtained:
Assay in all cases: log2 fold change, soluble protein after heating vs DMSO (PISA); higher = thermal stabilisation; K562 cells, 10 uM, 30 min; active = over 0.2 and 3.5 SD of the protein, either way, in both replicates (recomputed)
crizotinib = compound: C[C@@H](Oc1cc(-c2cnn(C3CCNCC3)c2)cnc1N)c1c(Cl)ccc(F)c1Cl [crizotinib]
In short: (§1)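 Thermal stability values are relative to control samples and come from duplicates. They are expressed as log2 fold changes. For measurement, K562 cells (2×10^6 cells/mL) received 10 μM compound for 30 min, and aliquots were heated for 3 min over 48°C-58°C, pooled, and extracted at 4°C in PBS with 0.5% NP-40. Soluble protein, the supernatant after 21,000xg for 90 min, was quantified by TMTpro 16plex LC-MS/MS with equalised channel sums.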

[1] = compound: C[C@H](C1=CC=C(C=C1)C(=O)NC2=C3C=CNC3=NC=C2)N
In short: as §1

duvelisib = compound: C[C@H](Nc1ncnc2nc[nH]c12)c1cc2cccc(Cl)c2c(=O)n1-c1ccccc1 [duvelisib]
In short: as §1

gandotinib = compound: Cc1cc(Nc2cc(CN3CCOCC3)c3nc(C)c(Cc4ccc(Cl)cc4F)n3n2)n[nH]1 [gandotinib]
In short: as §1

[2] = compound: Cc1cc(SCc2sc(-c3ccc(C(F)(F)F)cc3)nc2C)ccc1OCC(=O)O
In short: as §1

doramapimod = compound: Cc1ccc(-n2nc(C(C)(C)C)cc2NC(=O)Nc2ccc(OCCN3CCOCC3)c3ccccc23)cc1 [doramapimod]
In short: as §1

[3] = compound: C[C@@H]1COCCN1C2=NC(=NC(=C2)C3(CC3)S(=O)(=O)C)C4=C5C=CNC5=CC=C4
In short: as §1

tozasertib = compound: Cc1cc(Nc2cc(N3CCN(C)CC3)nc(Sc3ccc(NC(=O)C4CC4)cc3)n2)n[nH]1 [tozasertib]
In short: as §1

ispinesib = compound: Cc1ccc(C(=O)N(CCCN)[C@@H](c2nc3cc(Cl)ccc3c(=O)n2Cc2ccccc2)C(C)C)cc1 [ispinesib]
In short: as §1

[4] = compound: CS(=O)(=O)c1ccc(-c2cnc(N)c(C(=O)Nc3ccccc3)n2)cc1
In short: as §1

Measured: log2 fold change

BLVRA (UniProt C9J1E1)
inactive: crizotinib -0.422 | [1] 0.137 | duvelisib 0.007 | gandotinib -0.036 | [2] -0.018 | doramapimod -0.081

ATXN7L2 (UniProt Q5T6C5)
inactive: [3] 0.067

BORCS8 (UniProt Q96FH0)
inactive: tozasertib -0.003 | ispinesib 0.087

B4GALT4 (UniProt O60513)
inactive: [4] -0.014 | gandotinib 0.249 | ispinesib 0.133

BNIP3L (UniProt O60238)
inactive: crizotinib -0.185 | [1] -0.059 | duvelisib 0.313 | tozasertib -0.061 | [2] -0.085 | doramapimod -0.133 | ispinesib -0.214

AURKB isoform 5 (UniProt Q96GD4)
inactive: duvelisib -0.123 | tozasertib 1.11 | [2] -0.032

BCL7A isoform 2 (UniProt Q4VC05)
inactive: [4] -0.09 | [3] 0.028 | tozasertib -0.004

ATXN3 isoform 1 (UniProt P54252)
inactive: crizotinib -0.028 | [1] 0.076 | gandotinib -0.028 | doramapimod 0.087 | ispinesib -0.043

ATXN2 (UniProt F8W0B5)
inactive: [4] -0.061 | [1] -0.014 | duvelisib 0.041 | gandotinib -0.226 | [2] -0.024 | ispinesib 0.01

AURKA (UniProt O14965)
active: gandotinib 1.01
inactive: [4] 0.198 | [3] -0.251 | [1] 0.066 | [2] -0.013 | doramapimod 0.051 | ispinesib -0.107

BPNT1 (UniProt A6NF51)
inactive: crizotinib -0.03 | [3] -0.046 | tozasertib 0.004 | doramapimod 0.059 | ispinesib -0.084

ATRX (UniProt P46100)
inactive: [1] 0.255 | gandotinib -0.037

AZIN1 (UniProt O14977)
inactive: ispinesib -0.012

BCL2L12 (UniProt Q9HB09)
inactive: [3] 0.094 | [1] -0.013 | duvelisib -0.162 | gandotinib -0.095 | [2] 0.135 | ispinesib -0.174

BLZF1 (UniProt Q9H2G9)
inactive: [4] -0.204 | [1] -0.089

B4GAT1 (UniProt O43505)
inactive: crizotinib 0.041 | [3] 0.042 | [1] 0.196 | duvelisib 0.052 | gandotinib 0.349 | tozasertib -0.054 | [2] -0.031 | doramapimod -0.085 | ispinesib -0.006

AUNIP isoform 2 (UniProt Q9H7T9)
inactive: [4] 0.117 | [1] -0.007 | [2] 0.056

BRD4 (UniProt O60885)
inactive: [4] 0.081 | [3] 0.288 | [1] -0.009 | gandotinib -0.034 | [2] -0.044 | ispinesib -0.022

AUH (UniProt Q13825)
inactive: crizotinib -0.301 | [1] -0.105 | gandotinib -0.127 | [2] 0.135 | doramapimod 0.071 | ispinesib -0.069

2 consecutive entries already listed, quoted:
BRD4 (UniProt O60885)
inactive: [4] 0.081 | [3] 0.288 | [1] -0.009 | gandotinib -0.034 | [2] -0.044 | ispinesib -0.022

AUH (UniProt Q13825)
inactive: crizotinib -0.301 | [1] -0.105 | gandotinib -0.127 | [2] 0.135 | doramapimod 0.071 | ispinesib -0.069

Additional entries follow.

ATXN2L (UniProt H3BUF6)
inactive: crizotinib -0.023 | gandotinib 0.279 | doramapimod 0.092 | ispinesib -0.005

AVEN (UniProt Q9NQS1)
inactive: [3] 0.189 | [1] 0.147 | duvelisib 0.142 | gandotinib -0.029 | [2] 0.146

BNIP3 (UniProt Q12983)
inactive: [4] -0.144 | [3] -0.117 | gandotinib -0.169 | tozasertib -0.023 | ispinesib -0.147

BBC3 (UniProt Q9BXH1)
inactive: crizotinib 0.259 | [3] -0.049 | [1] -0.039 | duvelisib 0.115 | gandotinib -0.003 | tozasertib 0.015 | [2] 0.015 | doramapimod -0.052 | ispinesib 0.044

BOD1 (UniProt Q96IK1)
inactive: gandotinib -0.069 | ispinesib 0.204

BRMS1 (UniProt Q9HCU9)
inactive: [3] -0.034 | gandotinib -0.174 | [2] -0.046

BCAS3 isoform 8 (UniProt Q9H6U6)
inactive: crizotinib 0.034 | [1] -0.049 | duvelisib -0.062 | gandotinib 0.006 | tozasertib 0.024 | [2] 0.034 | doramapimod 0.093

BCL7B (UniProt Q9BQE9)
inactive: crizotinib 0.337 | [1] 0.02 | duvelisib -0.048 | [2] -0.013 | doramapimod -0.06

B3GALT6 (UniProt Q96L58)
inactive: crizotinib 0.183 | doramapimod -0.05 | ispinesib -0.09

BCDIN3D (UniProt Q7Z5W3)
inactive: [1] -0.103 | tozasertib -0.037

BAHD1 (UniProt Q8TBE0)
inactive: gandotinib -0.126

BFAR (UniProt Q9NZS9)
inactive: [3] 0.046

BAIAP2 isoform 4 (UniProt Q9UQB8)
inactive: [4] -0.112 | [1] 0.29

AZI2 (UniProt Q9H6S1)
inactive: [4] 0.074 | ispinesib -0.019

BEX4 (UniProt Q9NWD9)
inactive: [4] -0.184 | [1] -0.023 | duvelisib 0.019 | [2] 0.172

BSCL2 isoform 4 (UniProt Q96G97)
inactive: [3] 0.05 | [1] -0.007 | gandotinib -0.086 | [2] 0.111

BRAF, A0A2R8Y8E0
active: doramapimod -0.757
inactive: crizotinib 0.262 | ispinesib -0.223

BHMT (UniProt Q93088)
inactive: [4] 0.165 | duvelisib -0.226 | [2] -0.057

BORCS7 (UniProt Q96B45)
inactive: crizotinib 0.075 | [1] -0.127 | duvelisib 0.196 | gandotinib 0.21 | tozasertib -0.003 | [2] -0.022 | doramapimod 0.04

AXIN1 (UniProt O15169)
inactive: gandotinib -0.016

BAP18 isoform 3 (UniProt Q8IXM2)
inactive: gandotinib 0.147
